About 610 (0.16%) of roughly 390,000 compounds were called active. Inconclusive means that the source gave no clear call. Such entries were picked first, then a sample of the others. The call rests on the fitted dose curve; in most records, active means well fitted inhibition curve with a large enough effect; inconclusive means small, poorly fitted or top-dose-only effect, or effect the other way, or another doubt; inactive means no such curve, though single readings can be large or run the other way. A potency beside an inconclusive call is a rough fit, not a confirmed value.
Test: Nrf2 qHTS screen for inhibitors: counterscreen for cytotoxicity
Settings: A549 ARE-Fluc cells, CellTiter-Fluor viability, 18-24 h; series mostly up to 46 µM
Procedure, shortened: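 Cytotoxicity counterscreen: CellTiter-Fluor fluorescence was measured in A549 ARE_Fluc cells after 18-24 h of compound exposure in a concentration series. The subsequent BugLite luminescent read reports ARE-luciferase activity.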
Potency means the concentration at half of the fitted maximal effect.

**Q.** With `CC[n+]1c(/C=C/Nc2ccccc2)oc2ccccc21` as the molecule, how does the Potency read?
**A.** inconclusive: 29.1 µM [falling, single point]

**Q.** Which Potency does the source give for `O=C(Nn1cnnc1)c1cc(-c2ccccn2)nc2ccccc12` here?
**A.** inconclusive: 18.4 µM [activator, partial curve, poor fit]

**Q.** With `COc1ccc(C(=O)CSc2nnc(CNC(=O)c3ccccc3)o2)cc1` as the molecule, how does the Potency read?
**A.** inactive

**Q.** Which Potency does the source give for `C=CC[C@H](CC(=O)N(CCO)Cc1ccccc1)C(=O)N[C@H](COC(=O)[C@@H](CC=C)CC(=O)OC(C)(C)C)c1ccccc1` here?
**A.** inactive

**Q.** For `COc1cc(Nc2cc(C)nc3ncnn23)cc(OC)c1`, which Potency is on record?
**A.** inconclusive: 29.1 µM [falling, single point]

**Q.** For `CCS(=O)(=O)c1ncc(Cl)c(C(=O)Nc2ccccc2)n1`, which Potency is on record?
**A.** inconclusive: 18.4 µM [falling, single point]

**Q.** For `COc1ccc(Cl)cc1NC(=O)NCC1CCN(Cc2cc(C)ccc2C)CC1`, which Potency is on record?
**A.** inconclusive: 29.1 µM [falling, single point]

**Q.** Which Potency does the source give for `Cc1cc(/C=C2\SC(=S)N(C)C2=O)c(C)n1-c1ccc(O)cc1` here?
**A.** inconclusive: 29.1 µM [falling, single point]

**Q.** With `COc1cc(-c2nnc(COC(=O)C3c4ccccc4Oc4ccccc43)o2)cc(OC)c1OC` as the molecule, how does the Potency read?
**A.** inactive

**Q.** Which Potency does the source give for `Oc1ccc(Br)cc1/C=N/Nc1nc(N2CCCCC2)nc(N2CCOCC2)n1` here?
**A.** inconclusive: 32.6 µM [activator, partial curve, poor fit]

**Q.** With `O=S(=O)(NCC(c1ccco1)S(=O)(=O)c1cccs1)c1ccc(Cl)cc1` (centres undefined) as the molecule, how does the Potency read?
**A.** inactive

**Q.** With `CC(=NNC(=S)Nc1ccc(C)cc1)c1ccccn1` as the molecule, how does the Potency read?
**A.** active: 11.6 µM

**Q.** With `N=C1/C(=C/c2cccn2CCOc2ccccc2)C(=O)N=C2SC=C(c3ccccc3)N12` as the molecule, how does the Potency read?
**A.** inconclusive: 23.1 µM [falling, partial curve, poor fit]

**Q.** With `CCSc1nnc(NC(=O)CCNS(=O)(=O)c2cc(Br)cnc2N)s1` as the molecule, how does the Potency read?
**A.** inactive

**Q.** With `COc1cccc(Oc2cnc(N)nc2-c2ccc(OC)cc2O)c1` as the molecule, how does the Potency read?
**A.** inactive

**Q.** For `CCOC(=S)SCc1cn2ccc(C)cc2n1`, which Potency is on record?
**A.** inactive

**Q.** Which Potency does the source give for `CCN1CCN(C(c2cccs2)C(C)NC(=O)c2ccccc2F)CC1` (centres undefined) here?
**A.** inconclusive: 14.6 µM [activator, partial curve]

**Q.** With `COc1ccc(/C=C/C(=O)c2oc3ccc(F)cc3c2C)cc1` as the molecule, how does the Potency read?
**A.** inactive

**Q.** Which Potency does the source give for `Cc1nnsc1S(=O)(=O)c1ccccc1` here?
**A.** inactive

**Q.** With `COc1ccc(CNC(=O)C2CCC(=O)N(CCCN3CCCC3=O)C2)c(OC)c1` (centres undefined) as the molecule, how does the Potency read?
**A.** inactive

**Q.** With `COc1ccc(CN(C)CC(O)COC(c2ccccc2)c2ccccc2)c(OC)c1OC` (centres undefined) as the molecule, how does the Potency read?
**A.** inconclusive: 32.6 µM [falling, partial curve, poor fit]

**Q.** For `O=C(CSc1ccc(Cl)cc1)Nc1ccccc1Oc1ccccc1`, which Potency is on record?
**A.** inconclusive: 25.9 µM [activator, partial curve, poor fit]

**Q.** For `O=C(CC12CC3CC(CC(C3)C1)C2)NC(=S)NCc1ccccc1`, which Potency is on record?
**A.** inconclusive: 23.1 µM [activator, partial curve, poor fit]

**Q.** Which Potency does the source give for `O=c1cc(-c2ccc(Cl)cc2)[nH][nH]1` here?
**A.** inconclusive: 0.92 µM [falling, full curve, poor fit]

**Q.** Which Potency does the source give for `COc1ccccc1NC(=O)Cc1csc(NC(=O)c2ccccc2)n1` here?
**A.** inconclusive: 29.1 µM [falling, partial curve, poor fit]

**Q.** With `O=C(COC(=O)CNC(=O)c1ccco1)NCCN1C(=O)CSC1=O` as the molecule, how does the Potency read?
**A.** inconclusive: 1.46 µM [falling, partial curve]

**Q.** With `Cc1ccccc1OCC(=O)N1N=C(c2cccnc2)CC1(O)C(F)(F)F` (centres undefined) as the molecule, how does the Potency read?
**A.** inactive

**Q.** Which Potency does the source give for `COCCNC(=O)CSc1nc(-c2ccc(C)cc2)[nH]c1-c1ccc(OC)cc1` here?
**A.** inactive

**Q.** With `Cc1cc(N2CCN(c3ccc(F)cc3)CC2)n2cnnc2n1` as the molecule, how does the Potency read?
**A.** inactive

**Q.** For `Cc1cc(/C=C(\C#N)C(=O)Nc2ccc(F)cc2)c(C)n1-c1ccc(N2CCOCC2)c([N+](=O)[O-])c1`, which Potency is on record?
**A.** inactive

**Q.** For `COc1ccc2c(Cl)c(C(=O)N/N=C/c3ccc4c(c3)OCO4)sc2c1`, which Potency is on record?
**A.** inconclusive: 29.1 µM [falling, single point]

**Q.** For `CC1(C)CC(CC(=O)Nc2nccs2)(c2ccccc2)CCO1` (centres undefined), which Potency is on record?
**A.** inactive

**Q.** For `COc1ccc(C2C(C#N)=C(N)Oc3cc4c(cc32)OCO4)cc1` (centres undefined), which Potency is on record?
**A.** inconclusive: 25.9 µM [falling, partial curve, poor fit]

**Q.** Which Potency does the source give for `CSc1cccc(NC(=S)N2CCCN(Cc3ccccc3F)C2)c1` here?
**A.** inactive

**Q.** For `CCN(CC(O)COc1ccc(OCC(O)CN(CC)C2CCCCC2)cc1)C1CCCCC1` (centres undefined), which Potency is on record?
**A.** inconclusive: 18.4 µM [falling, partial curve, poor fit]

**Q.** For `CN1CCC(NCCC(c2ccc(F)cc2)c2ccc(Cl)cc2)CC1` (centres undefined), which Potency is on record?
**A.** inactive

**Q.** With `COc1ccc(N(CC(=O)NCCSCc2ccc(C)cc2)S(=O)(=O)c2ccccc2)cc1` as the molecule, how does the Potency read?
**A.** inconclusive: 20.6 µM [falling, single point]

**Q.** With `Cc1nn(Cc2ccc(Cl)cc2)c(C)c1NC(=O)CSc1nc2c(c(C(F)(F)F)n1)CCc1ccccc1-2` as the molecule, how does the Potency read?
**A.** inconclusive: 23.1 µM [falling, single point]

**Q.** Which Potency does the source give for `Cn1c(=NC(=O)c2ccc(S(=O)(=O)N3CCCc4ccccc43)cc2)sc2cc(S(C)(=O)=O)ccc21` here?
**A.** inconclusive: 23.1 µM [activator, partial curve, poor fit]

**Q.** Which Potency does the source give for `Cc1cccc(NC(=O)C2C3C=CC4(O3)C2C(=O)N(CCCN2CCCC2)C4C(=O)NC2CCCC(C)C2C)c1` (centres undefined) here?
**A.** inconclusive: 10.3 µM [falling, partial curve]

**Q.** Which Potency does the source give for `CCOc1ccc(C(=O)Nc2ccc(C(=O)OCc3cc(=O)n4c(C)csc4n3)cc2)cc1` here?
**A.** inconclusive: 18.4 µM [falling, single point]

**Q.** With `COCCNC(=O)CCCn1c(SCc2ccccc2C)nc2c(sc3ccccc32)c1=O` as the molecule, how does the Potency read?
**A.** inconclusive: 29.1 µM [falling, single point]

**Q.** For `Cc1ccc(S(=O)(=O)Nc2cccc3c2O[C@H](CN(C)Cc2ccc(-c4ccccc4)cc2)[C@@H](C)CN([C@H](C)CO)C3=O)cc1`, which Potency is on record?
**A.** inconclusive: 32.6 µM [falling, partial curve, poor fit]

**Q.** For `C/C(=N/NC(=O)c1ccc(C(C)(C)C)cc1)c1ccccn1`, which Potency is on record?
**A.** inconclusive: 0.58 µM [falling, full curve, poor fit]

Reference: PubChem BioAssay AID504648 (National Center for Advancing Translational Sciences (NCATS), 2011)
